Laboratory results: PubChem BioAssay AID504793 (Drosophila RNAi Screening Center, 2011)
In all, the deposit lists about 23,000 reagents; below is an unselected part of those that have a named target and a result. Of all reagents, 62 (0.27%) got an active call. 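Calls come from follow-up tests whose scores are not deposited, so confirmed genes may have low counts here; counts are not normalised per plate.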 Raw values are not corrected between plates. Reagent sequences are not shown.

Aim: 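Knock-downs allowing continued mitosis even though DNA is damaged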 (primary screen)
Cells: Drosophila S2R+ cells
Reagents: long dsRNA against Drosophila genes, about 0.25 µg dsRNA per well
Timing: 4 days of dsRNA, then 4 hours of drug before read-out
Treatment: doxorubicin 0.5 µM for 4 hours to cause double-strand breaks, in cells also given a low, harmless dose of dsRNA against nbs to sensitise the assay
Detection: 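Mitotic index as the number of phospho-histone H3-positive cells in each well following doxorubicin, given as raw counts without normalisation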
Direction: mitotic cells: higher = more cells in mitosis, weaker G2 arrest
Hit rule: 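a call needs confirmation in secondary tests, with other dsRNAs and a check of mitotic timing without damage, not just a high primary count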
Calls: active = confirmed in follow-up tests; inactive = not confirmed

Depletion of CG2145 [SID104199627] resulted in: mitotic cells, replicate 1 = 9; inactive.
Silencing of CG2145 [SID104206108] resulted in: mitotic cells, replicate 1 = 8; inactive.
Silencing of TER94 [SID104187352] came out at: mitotic cells, replicate 1 = 14; inactive.
Depletion of TER94 [SID104206144] gave: mitotic cells, replicate 1 = 28; inactive.
Vps60 [SID104190402] showed mitotic cells, replicate 1 = 4; inactive.
Depletion of CanB [SID104198241] came out at: mitotic cells, replicate 1 = 14; inactive.
CanB [SID104207764] gave mitotic cells, replicate 1 = 6; inactive.
Cyp28d1 [SID104183090] gave mitotic cells, replicate 1 = 4; inactive.
For Cyp28d1 [SID104201112] the deposit lists mitotic cells, replicate 1 = 7; inactive.
For Cyp28d1 [SID104206836], the entry reads mitotic cells, replicate 1 = 3; inactive.
For stv [SID104189903], the values are mitotic cells, replicate 1 = 6; inactive.
For stv [SID104203182] the deposit lists mitotic cells, replicate 1 = 6; inactive.
After knock-down of alpha-Man-Ib [SID104194210], the screen gave mitotic cells, replicate 1 = 4; inactive.
After knock-down of alpha-Man-Ib [SID104204675], the screen gave mitotic cells, replicate 1 = 5; inactive.
For CG6678 [SID104195884], the values are mitotic cells, replicate 1 = 1; inactive.
Depletion of CG6678 [SID104205942] gave: mitotic cells, replicate 1 = 2; inactive.
Depletion of Cpr67Fa1 [SID104190724] gave: mitotic cells, replicate 1 = 2; inactive.
After knock-down of eEF1alpha1 [SID104187213] the results were mitotic cells, replicate 1 = 5; inactive.
With knock-down of eEF1alpha1 [SID104203679], the record shows mitotic cells, replicate 1 = 2; inactive.
Depletion of mspo [SID104187444] came out at: mitotic cells, replicate 1 = 10; inactive.
mspo [SID104206738] scored mitotic cells, replicate 1 = 7; inactive.
Depletion of PrBP [SID104182981] came out at: mitotic cells, replicate 1 = 4; inactive.
After knock-down of PrBP [SID104204406], the record shows mitotic cells, replicate 1 = 5; inactive.

2 entries from above, set out differently:
{"gene":"eEF1alpha1","PubChem SID":"SID104187213","mitotic cells, replicate 1":5,"activity call":"inactive"}
{"gene":"eEF1alpha1","PubChem SID":"SID104203679","mitotic cells, replicate 1":2,"activity call":"inactive"}
